In the supplement of paper PMC10735217:
Structures can show the parent of a compound that is named as a salt. Some of the results follow. Single values are uncertain here, since repeats match poorly.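 Human kidney-derived cells stably carry a construct in which eight TEAD-binding elements drive luciferase, measured by luminescence in a drug-repurposing library screen. A hit is any compound whose signal exceeds the plate mean by more than five robust Z scores.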

Tested on: HEK293A TEAD-LUC reporter
Assay: TEAD-luciferase reporter activity (YAP activation), robust Z score vs plate; higher = stronger YAP/TEAD activation
Details: 24 h

SMILES	TEAD-luciferase reporter activity (compound concentration: 2 uM)	TEAD-luciferase reporter activity (compound concentration: 200 nM)	TEAD-luciferase reporter activity (compound concentration: 10 uM)
CC(Cc1ccc(O)cc1)NCC(O)c1cc(O)cc(O)c1 (configuration not stated) [fenoterol]	inactive: 0.0875	–	–
CC(Cc1ccc(O)cc1)NCC(O)c1cc(O)cc(O)c1 (configuration not stated) [fenoterol, NIH]	–	inactive: 0.131	inactive: -1.94
CSc1cccc(N(C)C(=N)Nc2cc(SC)ccc2Cl)c1	inactive: -1.41	inactive: -1.27	inactive: 1.67
CCN(CC)CCOC(=O)C(O)(c1ccccc1)c1ccccc1	inactive: -0.506	inactive: -1.41	inactive: -0.494
COCC1(CO)C(=O)C2CCN1CC2 (configuration not stated)	inactive: -1.78	inactive: 0.119	inactive: -0.104
O=C(C1CCCN1C(=O)c1ccccc1)N1CCC(N2CCCC2=O)CC1 (configuration not stated)	–	inactive: 1.64	inactive: 2.85
CNC(=O)OC1CN2CCC1C2 (configuration not stated)	inactive: -1.88	inactive: -1.94	inactive: 1.05
CC(Oc1ccc(Cl)cc1Cl)C(=O)O (configuration not stated)	inactive: 0.0161	inactive: -1.28	inactive: -0.747
O=C(O)C1(c2ccc3c(c2)OC[C@@H](Cc2ccc(-c4ccccc4)cc2)[C@@H]3O)CCCC1	inactive: -0.399	inactive: 1.12	inactive: 2.98
CC1COC2(c3ccccc3Cl)c3cc(Cl)ccc3NC(=O)CN12 (configuration not stated)	inactive: -0.938	inactive: -0.681	inactive: -0.259
CN(C)/C=C1\N=C2CN=C(c3ccccc3Cl)c3cc([N+](=O)[O-])ccc3N2C1=O	inactive: -0.859	inactive: -0.998	inactive: -0.642
CN1CCN(C(=O)O[C@H]2c3nccnc3C(=O)N2c2ccc(Cl)cn2)CC1 [eszopiclone]	inactive: -0.19	–	–
CN1CCN(C(=O)O[C@H]2c3nccnc3C(=O)N2c2ccc(Cl)cn2)CC1 [Eszopiclone]	–	inactive: 0.417	inactive: 3.74
CO[C@@H]1[C@@H](O)[C@H](C)O[C@@H](O[C@H]2CC[C@@]3(C)[C@H](CC[C@@H]4[C@@H]3CC[C@]3(C)[C@@H](C5=CC(=O)OC5)CC[C@]43O)C2)[C@H]1OC(C)=O	inactive: -2.53	active: 17.9	active: 7.05
CC[C@@H](c1cccc(O)c1)[C@@H](C)CN(C)C [Tapentadol]	inactive: -1.5	inactive: -0.269	inactive: 0.342
O=C(O)c1ccc2[nH]cc(CCCCN3CC=C(c4ccccc4)CC3)c2c1 [Carmoxirole hydrochloride]	inactive: 0.464	inactive: -2.5	inactive: 0.863
COc1ncnc(Cn2cc(C(=O)NCCO)c3ncc(C)cc32)c1C	–	inactive: -0.66	inactive: -0.107
Cc1cccc(C(C)c2c[nH]cn2)c1C (configuration not stated) [dexmedetomidine (buccal), Orion]	–	inactive: -1.51	inactive: 1.61
Cc1cccc(C(C)c2c[nH]cn2)c1C (configuration not stated) [dexmedetomidine (buccal)]	inactive: 3.09	–	–
O=[N+]([O-])OCCCCO	inactive: 0.274	inactive: -0.515	inactive: 3.62
O=C(CCCN1CCC(n2c(=O)[nH]c3ccccc32)CC1)c1ccc(F)cc1 [Benperidol]	inactive: -2.43	inactive: 0.0715	inactive: -1.5
O=C1[O][Pt]2([OH])([OH])([NH][C@@H]3CCCC[C@H]3[NH]2)[O]C1=O	inactive: -0.0293	inactive: -1.4	inactive: 1.16
N#Cc1ccc(S[C@@H]2SC[C@@H](O)[C@H](O)[C@H]2O)cc1	inactive: -0.315	inactive: -0.112	inactive: 1.53
C#C[C@]1(O)CCC2C3CCC4=C[C@@H](O)CC[C@]4(C)C3CC[C@@]21C (some centres not stated)	inactive: -0.58	inactive: 0.191	inactive: 1.42
CN[C@H]1C[C@@H](N)[C@H](O)[C@@H](O[C@@H]2O[C@H](CO)[C@H](O)[C@@H]3OC4(O[C@H]23)O[C@H]([C@@H](N)CO)[C@H](O)[C@H](O)[C@H]4O)[C@@H]1O (some centres not stated) [Hygromycin B]	inactive: -0.625	inactive: 0.112	inactive: -0.423
CNC1C2C=CCC1c1ccccc1C2 (configuration not stated)	inactive: -1.83	inactive: -1.17	inactive: -0.942
CCCCCCN1CC=C(c2ccc(Cl)cc2)CC1	inactive: -0.594	inactive: -0.326	inactive: 2.46

Reformatted in CSV form: entries from further up
SMILES,TEAD-luciferase reporter activity (compound concentration: 2 uM),TEAD-luciferase reporter activity (compound concentration: 200 nM),TEAD-luciferase reporter activity (compound concentration: 10 uM)
"CC(Cc1ccc(O)cc1)NCC(O)c1cc(O)cc(O)c1 (configuration not stated) [fenoterol, NIH]",–,inactive: 0.131,inactive: -1.94
CCN(CC)CCOC(=O)C(O)(c1ccccc1)c1ccccc1,inactive: -0.506,inactive: -1.41,inactive: -0.494
O=C(C1CCCN1C(=O)c1ccccc1)N1CCC(N2CCCC2=O)CC1 (configuration not stated),–,inactive: 1.64,inactive: 2.85
CNC(=O)OC1CN2CCC1C2 (configuration not stated),inactive: -1.88,inactive: -1.94,inactive: 1.05
CC1COC2(c3ccccc3Cl)c3cc(Cl)ccc3NC(=O)CN12 (configuration not stated),inactive: -0.938,inactive: -0.681,inactive: -0.259
CN1CCN(C(=O)O[C@H]2c3nccnc3C(=O)N2c2ccc(Cl)cn2)CC1 [Eszopiclone],–,inactive: 0.417,inactive: 3.74
CO[C@@H]1[C@@H](O)[C@H](C)O[C@@H](O[C@H]2CC[C@@]3(C)[C@H](CC[C@@H]4[C@@H]3CC[C@]3(C)[C@@H](C5=CC(=O)OC5)CC[C@]43O)C2)[C@H]1OC(C)=O,inactive: -2.53,active: 17.9,active: 7.05
O=C(O)c1ccc2[nH]cc(CCCCN3CC=C(c4ccccc4)CC3)c2c1 [Carmoxirole hydrochloride],inactive: 0.464,inactive: -2.5,inactive: 0.863
COc1ncnc(Cn2cc(C(=O)NCCO)c3ncc(C)cc32)c1C,–,inactive: -0.66,inactive: -0.107
"Cc1cccc(C(C)c2c[nH]cn2)c1C (configuration not stated) [dexmedetomidine (buccal), Orion]",–,inactive: -1.51,inactive: 1.61
O=C(CCCN1CCC(n2c(=O)[nH]c3ccccc32)CC1)c1ccc(F)cc1 [Benperidol],inactive: -2.43,inactive: 0.0715,inactive: -1.5
O=C1[O][Pt]2([OH])([OH])([NH][C@@H]3CCCC[C@H]3[NH]2)[O]C1=O,inactive: -0.0293,inactive: -1.4,inactive: 1.16
N#Cc1ccc(S[C@@H]2SC[C@@H](O)[C@H](O)[C@H]2O)cc1,inactive: -0.315,inactive: -0.112,inactive: 1.53
C#C[C@]1(O)CCC2C3CCC4=C[C@@H](O)CC[C@]4(C)C3CC[C@@]21C (some centres not stated),inactive: -0.58,inactive: 0.191,inactive: 1.42
CN[C@H]1C[C@@H](N)[C@H](O)[C@@H](O[C@@H]2O[C@H](CO)[C@H](O)[C@@H]3OC4(O[C@H]23)O[C@H]([C@@H](N)CO)[C@H](O)[C@H](O)[C@H]4O)[C@@H]1O (some centres not stated) [Hygromycin B],inactive: -0.625,inactive: 0.112,inactive: -0.423

The list continues.

SMILES	TEAD-luciferase reporter activity (compound concentration: 2 uM)	TEAD-luciferase reporter activity (compound concentration: 200 nM)	TEAD-luciferase reporter activity (compound concentration: 10 uM)
CN1CC[C@]23c4c5ccc(O)c4O[C@H]2C(=O)CC[C@H]3[C@H]1C5 [Hydromorphone hydrochloride]	–	inactive: 2	inactive: 0.489
O=C(C1CCCN1C(=O)c1ccc(C(F)(F)F)cc1)N1CCC(N2CCOC2=O)CC1 (configuration not stated)	–	inactive: 1.99	inactive: 0.541
C[C@]12CCC(=O)C=C1C=C[C@@H]1[C@@H]2CC[C@@]2(C)[C@H]1CC[C@@]2(O)CCC(=O)O [Canrenoate potassium]	–	inactive: 0.466	inactive: 1.4
Oc1ccc2c(c1)CC[N+]1=C2CCC2CCCC21 (configuration not stated)	inactive: -1.56	inactive: -1.37	inactive: 2.62
CC12CCC(=O)C=C1CC[C@@H]1[C@@H]2CCC2(C)[C@@H](OC(=O)CCC3CCCC3)CC[C@@H]12 (some centres not stated) [Testosterone cypionate]	inactive: -0.378	inactive: -0.421	inactive: 1.28
CCCCCCCCCCCC(=O)[O][Sn]([CH2]CCC)([CH2]CCC)[O]C(=O)CCCCCCCCCCC [Dibutyltin Dilaurate]	inactive: 0.0962	inactive: -0.561	inactive: 3.98
CCNC(=O)[C@@H](CC(C)C)NC(=O)[C@H](CCCNC(=N)N)N(C)C(=O)[C@H](CCCNC(=N)N)NC(=O)[C@H](CC(C)C)NC(=O)[C@H](Cc1ccccc1)NC(=O)CNC(=O)CNC(=O)[C@H](Cc1ccc(O)cc1)NC	inactive: -0.475	inactive: -0.729	inactive: 1.65
CCN(CCCC(=O)C1CCCCC1)[C@@H](C)Cc1ccc(OC)cc1	inactive: 1.09	inactive: 2.3	inactive: 1.01
CN1CC[C@@]2(C)c3cc(OC(=O)N4CCc5ccccc5C4)ccc3N(C)[C@@H]12	inactive: 0.21	inactive: -2.24	inactive: 0.153
O=C(N[C@H]1CN2CCC1CC2)c1cnc2ccsc2c1O [Pumosetrag hydrochloride]	inactive: -0.661	inactive: -0.693	inactive: -0.933
C[C@@H]1C[C@H]2[C@@H]3C[C@H](F)C4=CC(=O)C=C[C@]4(C)[C@@]3(F)[C@@H](O)C[C@]2(C)[C@@]1(OC(=O)C1C(C)(C)C1(C)C)C(=O)OCC#N	inactive: 1.2	inactive: 1.5	inactive: 0.475
CCC(N)Cc1cc(OC)c(C)cc1OC (configuration not stated) [Dimoxamine]	inactive: -0.486	inactive: -0.0709	inactive: -1.28
CS(=O)CCNC(=O)N(CCCl)N=O (configuration not stated) [Perrimustine]	inactive: -0.0512	inactive: -1.2	inactive: 1.49
NCC1(CC(=O)O)CC2CCCC21 (configuration not stated)	inactive: -0.914	inactive: -1.44	inactive: -1.01
CCOC(=O)C1(c2ccccc2)CCCN(C)CC1 (configuration not stated)	inactive: 1.13	inactive: -1.48	inactive: 1.04
CCC1(CC)C(=O)NC(=O)NC1=O [Barbital]	–	inactive: 2.06	inactive: -0.347
C=CCC1(CC(C)C)C(=O)NC(=O)NC1=O [Butalbital]	inactive: -1.21	inactive: -0.609	inactive: -0.57
COCCC1CC2CN3CCc4c([nH]c5ccccc45)[C@](C(=O)OC)(C2)[C@H]13 (some centres not stated) [18-Methoxycoronaridine]	inactive: -0.78	inactive: 0.349	inactive: 0.0478
COc1ccc(C[C@H]2C(=O)N[C@@H](C)C(=O)N(C)[C@H]3Cc4ccc(cc4)Oc4cc(ccc4OC)C[C@@H](C(=O)N[C@H](C)C(=O)N[C@@H](C)C(=O)N2C)N(C)C3=O)cc1	inactive: -2.48	inactive: -0.646	inactive: 1.04
Clc1ccccc1C1=NCc2nnc(C3CCCCC3)n2-c2sc(Br)cc21	inactive: -0.247	inactive: 1.08	inactive: 0.456
CCC[C@@H]1CC2=CC(=O)CC[C@]2(C)[C@H]2CC[C@@]3(C)[C@@H](CC[C@@]3(O)CCC(=O)[O-])[C@H]12 [oxprenoate potassium]	inactive: -1.01	inactive: 2.81	inactive: 1.28
O=C1CN2CCOC2(c2ccccc2F)c2cc(Cl)ccc2N1CCCO (configuration not stated)	inactive: -0.539	inactive: -0.622	inactive: -0.634
O=C(Nc1ccccc1)N[C@H]1C(=O)N(CC23CC4CC(CC(C4)C2)C3)c2ccccc2N(c2ccccc2)C1=O	inactive: -1.01	inactive: -1.16	inactive: -0.323
CCC1CN2CCc3cc(OC)c(OC)cc3C2CC1CC1NCCc2cc(OC)c(OC)cc21 (configuration not stated) [Emetine]	inactive: -3.28	inactive: -0.687	inactive: 0.16
OC(c1ccccc1)(c1ccccc1)C1CCNCC1	inactive: 1.79	inactive: -0.787	inactive: 1.92
CC(=O)C(C)Oc1cc(N)c(Cl)cc1C(=O)NC1CN2CCC1CC2 (configuration not stated)	inactive: -1.27	inactive: 1.57	inactive: -0.295
CCCCCCC1(c2cc(O)c3c(c2)OC(C)(C)[C@@H]2CC[C@@H](O)C[C@@H]32)CCC1	inactive: 0.399	inactive: -0.278	inactive: 0.767
